# Experimental data published in the supplement of paper PMC8728848.
# This is one part of the list.
# Tests used:
# Test in all cases: glycan array binding signal (z-score within array); higher = stronger binding
# Settings in all cases: glycan notation: IUPAC condensed, linker removed
# [1] = target: Gal(b1-3)Gal(b1-4)GlcNAc(b1-2)Man(a1-3)[Gal(b1-3)Gal(b1-4)GlcNAc(b1-2)Man(a1-6)]Man(b1-4)GlcNAc(b1-4)GlcNAc
# Procedure, shortened: (§1)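 From the Consortium for Functional Glycomics database, 3228 arrays were curated, keeping only those whose protein sequence was available. Binding is given as a within-array Z-score averaged across arrays sharing a protein sequence and across linkers. Negative Z-scores can be read as non-binding.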
# Gal(b1-3)GalNAc = target: Gal(b1-3)GalNAc
# Procedure, shortened: as §1
# [2] = target: Gal(b1-3)GalNAc(a1-3)[Fuc(a1-2)]Gal(b1-4)Glc
# Procedure, shortened: as §1
# [3] = target: Gal(b1-3)GalNAc(a1-3)[Fuc(a1-2)]Gal(b1-4)GlcNAc
# Procedure, shortened: as §1
# [4] = target: Gal(b1-3)GalNAc(b1-3)Gal(a1-4)Gal(b1-4)Glc
# Procedure, shortened: as §1
# [5] = target: Gal(b1-3)GalNAc(b1-4)Gal(b1-4)Glc
# Procedure, shortened: as §1
# [6] = target: Gal(b1-3)GalNAc(b1-4)[Neu5Ac(a2-3)]Gal(b1-4)Glc
# Procedure, shortened: as §1
# Gal(b1-3)GlcNAc = target: Gal(b1-3)GlcNAc
# Procedure, shortened: as §1
# [7] = target: Gal(b1-3)GlcNAc(a1-6)Gal(b1-4)GlcNAc
# Procedure, shortened: as §1
# [8] = target: Gal(b1-3)GlcNAc(b1-2)Man(a1-3)[Gal(b1-3)GlcNAc(b1-2)Man(a1-6)]Man(b1-4)GlcNAc(b1-4)GlcNAc
# Procedure, shortened: as §1
# [9] = target: Gal(b1-3)GlcNAc(b1-2)Man(a1-3)[Gal(b1-3)GlcNAc(b1-2)Man(a1-6)]Man(b1-4)GlcNAc(b1-4)[Fuc(a1-6)]GlcNAc
# Procedure, shortened: as §1
# [10] = target: Gal(b1-3)GlcNAc(b1-2)[Gal(b1-3)GlcNAc(b1-6)]Man(a1-6)[Gal(b1-3)GlcNAc(b1-2)Man(a1-3)]Man(b1-4)GlcNAc(b1-4)GlcNAc
# Procedure, shortened: as §1
# [11] = target: Gal(b1-3)GlcNAc(b1-3)Gal(b1-3)GlcNAc
# Procedure, shortened: as §1
# [12] = target: Gal(b1-3)GlcNAc(b1-3)Gal(b1-4)Glc
# Procedure, shortened: as §1
# [13] = target: Gal(b1-3)GlcNAc(b1-3)Gal(b1-4)GlcNAc
# Procedure, shortened: as §1
# [14] = target: Gal(b1-3)GlcNAc(b1-3)Gal(b1-4)GlcNAc(b1-6)[Gal(b1-3)GlcNAc(b1-3)]Gal(b1-4)Glc
# Procedure, shortened: as §1
# [15] = target: Gal(b1-3)GlcNAc(b1-3)Gal(b1-4)[Fuc(a1-3)]GlcNAc(b1-6)[Gal(b1-3)GlcNAc(b1-3)]Gal(b1-4)Glc
# Procedure, shortened: as §1
# [16] = target: Gal(b1-3)GlcNAc(b1-3)GalNAc
# Procedure, shortened: as §1
# [17] = target: Gal(b1-3)GlcNAc(b1-6)Gal(b1-4)GlcNAc
# Procedure, shortened: as §1
# [18] = target: Gal(b1-3)[Fuc(a1-4)]GlcNAc
# Procedure, shortened: as §1
# [19] = target: Gal(b1-3)[Fuc(a1-4)]GlcNAc(b1-2)Man(a1-3)[Gal(b1-3)[Fuc(a1-4)]GlcNAc(b1-2)Man(a1-6)]Man(b1-4)GlcNAc(b1-4)GlcNAc
# Procedure, shortened: as §1
# [20] = target: Gal(b1-3)[Fuc(a1-4)]GlcNAc(b1-2)Man(a1-3)[Gal(b1-3)[Fuc(a1-4)]GlcNAc(b1-2)Man(a1-6)]Man(b1-4)GlcNAc(b1-4)[Fuc(a1-6)]GlcNAc
# Procedure, shortened: as §1
# [21] = target: Gal(b1-3)[Fuc(a1-4)]GlcNAc(b1-3)Gal(b1-3)[Fuc(a1-4)]GlcNAc
# Procedure, shortened: as §1
# [22] = target: Gal(b1-3)[Fuc(a1-4)]GlcNAc(b1-3)Gal(b1-4)GlcNAc
# Procedure, shortened: as §1
# [23] = target: Gal(b1-3)[Fuc(a1-4)]GlcNAc(b1-3)Gal(b1-4)[Fuc(a1-3)]GlcNAc
# Procedure, shortened: as §1
# [24] = target: Gal(b1-3)[GlcNAc(b1-6)]GalNAc
# Procedure, shortened: as §1
# [25] = target: Gal(b1-3)[Neu5Ac(a2-6)]GalNAc
# Procedure, shortened: as §1
# [26] = target: Gal(b1-3)[Neu5Ac(a2-6)]GlcNAc(b1-6)Gal(b1-4)Glc
# Procedure, shortened: as §1
# [27] = target: Gal(b1-3)[Neu5Ac(b2-6)]GalNAc
# Procedure, shortened: as §1
# Gal(b1-4)Gal = target: Gal(b1-4)Gal
# Procedure, shortened: as §1
# [28] = target: Gal(b1-4)GalNAc(a1-3)[Fuc(a1-2)]Gal(b1-4)GlcNAc
# Procedure, shortened: as §1
# [29] = target: Gal(b1-4)GalNAc(b1-3)[Fuc(a1-2)]Gal(b1-4)GlcNAc
# Procedure, shortened: as §1
# Gal(b1-4)Glc = target: Gal(b1-4)Glc
# Procedure, shortened: as §1
# Gal(b1-4)Glc6S = target: Gal(b1-4)Glc6S
# Procedure, shortened: as §1
# Gal(b1-4)GlcNAc = target: Gal(b1-4)GlcNAc
# Procedure, shortened: as §1
# [30] = target: Gal(b1-4)GlcNAc(a1-6)Gal(b1-4)GlcNAc
# Procedure, shortened: as §1
# Gal(b1-4)GlcNAc(b1-2)Man = target: Gal(b1-4)GlcNAc(b1-2)Man
# Procedure, shortened: as §1
# [31] = target: Gal(b1-4)GlcNAc(b1-2)Man(a1-3)Man(b1-4)GlcNAc(b1-4)GlcNAc
# Procedure, shortened: as §1
binder,measurement,setting,value
"DCL-1 (Homo sapiens), Q8IX05 (protein) MLRAALPALLLPLLGLAAAAVADCPSSTWIQFQDSCYIFLQEAIKVESIEDVRNQCTDHGADMISIHNEEENAFILDTLKKQWKGPDDILLGMFYDTDDASFKWFDNSNMTFDKWTDQDDDEDLVDTCAFLHIKTGEWKKGNCEVSSVEGTLCKTAIPYKRKYLSDNHILISALVIASTVILTVLGAIIWFLYKKHSDSRFTTVFSTAPQSPYNEDCVLVVGEENEYPVQFD",glycan array binding signal (z-score),[1],-0.158
same,glycan array binding signal (z-score),Gal(b1-3)GalNAc,-0.347
same,glycan array binding signal (z-score),[2],-0.891
same,glycan array binding signal (z-score),[3],-0.032
same,glycan array binding signal (z-score),[4],-0.451
same,glycan array binding signal (z-score),[5],0.364
same,glycan array binding signal (z-score),[6],0.491
same,glycan array binding signal (z-score),Gal(b1-3)GlcNAc,0.479
same,glycan array binding signal (z-score),[7],-0.17
same,glycan array binding signal (z-score),[8],0.053
same,glycan array binding signal (z-score),[9],-0.129
same,glycan array binding signal (z-score),[10],2.22
same,glycan array binding signal (z-score),[11],0.234
same,glycan array binding signal (z-score),[12],-0.566
same,glycan array binding signal (z-score),[13],-0.606
same,glycan array binding signal (z-score),[14],0.605
same,glycan array binding signal (z-score),[15],0.68
same,glycan array binding signal (z-score),[16],0.072
same,glycan array binding signal (z-score),[17],-0.692
same,glycan array binding signal (z-score),[18],-0.447
same,glycan array binding signal (z-score),[19],-1.17
same,glycan array binding signal (z-score),[20],-0.384
same,glycan array binding signal (z-score),[21],-1.2
same,glycan array binding signal (z-score),[22],-0.03
same,glycan array binding signal (z-score),[23],-0.974
same,glycan array binding signal (z-score),[24],-0.573
same,glycan array binding signal (z-score),[25],0.078
same,glycan array binding signal (z-score),[26],0.213
same,glycan array binding signal (z-score),[27],-0.235
same,glycan array binding signal (z-score),Gal(b1-4)Gal,-0.028
same,glycan array binding signal (z-score),[28],0.232
same,glycan array binding signal (z-score),[29],0.082
same,glycan array binding signal (z-score),Gal(b1-4)Glc,-0.673
same,glycan array binding signal (z-score),Gal(b1-4)Glc6S,0.595
same,glycan array binding signal (z-score),Gal(b1-4)GlcNAc,0.064
same,glycan array binding signal (z-score),[30],-0.142
same,glycan array binding signal (z-score),Gal(b1-4)GlcNAc(b1-2)Man,0.223
same,glycan array binding signal (z-score),[31],-0.669

# Quoted from the listing for reference:
binder,measurement,setting,value
"DCL-1 (Homo sapiens), Q8IX05 (protein) MLRAALPALLLPLLGLAAAAVADCPSSTWIQFQDSCYIFLQEAIKVESIEDVRNQCTDHGADMISIHNEEENAFILDTLKKQWKGPDDILLGMFYDTDDASFKWFDNSNMTFDKWTDQDDDEDLVDTCAFLHIKTGEWKKGNCEVSSVEGTLCKTAIPYKRKYLSDNHILISALVIASTVILTVLGAIIWFLYKKHSDSRFTTVFSTAPQSPYNEDCVLVVGEENEYPVQFD",glycan array binding signal (z-score),[17],-0.692
same,glycan array binding signal (z-score),[18],-0.447
same,glycan array binding signal (z-score),[19],-1.17
same,glycan array binding signal (z-score),[20],-0.384
same,glycan array binding signal (z-score),[21],-1.2
same,glycan array binding signal (z-score),[22],-0.03
same,glycan array binding signal (z-score),[23],-0.974
same,glycan array binding signal (z-score),[24],-0.573
same,glycan array binding signal (z-score),[25],0.078
